{"sequences": {"note": "Sequences of proteins named here, by UniProt entry; tags and fusion partners are left off.", "UniProt Q9H8M2, whole entry": "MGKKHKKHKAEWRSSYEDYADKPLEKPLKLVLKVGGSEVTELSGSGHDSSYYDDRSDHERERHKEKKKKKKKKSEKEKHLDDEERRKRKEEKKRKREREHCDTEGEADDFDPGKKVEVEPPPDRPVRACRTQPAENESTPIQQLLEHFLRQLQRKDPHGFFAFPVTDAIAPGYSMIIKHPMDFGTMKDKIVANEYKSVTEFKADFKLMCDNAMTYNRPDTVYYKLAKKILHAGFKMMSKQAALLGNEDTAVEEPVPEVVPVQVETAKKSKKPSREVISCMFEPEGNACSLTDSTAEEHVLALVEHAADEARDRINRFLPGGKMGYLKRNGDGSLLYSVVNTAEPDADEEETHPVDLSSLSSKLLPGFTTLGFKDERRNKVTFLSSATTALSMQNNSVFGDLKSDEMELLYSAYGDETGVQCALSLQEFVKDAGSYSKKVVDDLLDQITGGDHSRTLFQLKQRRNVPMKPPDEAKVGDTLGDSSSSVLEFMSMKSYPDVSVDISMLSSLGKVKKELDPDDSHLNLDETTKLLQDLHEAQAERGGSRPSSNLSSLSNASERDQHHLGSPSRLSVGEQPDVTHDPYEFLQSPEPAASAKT"}, "source": "patent US11691972B2", "about": "“Compounds for targeted degradation of BRD9” (C4 Therapeutics, Inc., priority 2020, dated 2023)", "biological_target": "BRD9 (Homo sapiens, UniProt Q9H8M2)", "experiment": "HiBiT BRD9 degradation assay in 293T.166 (BRD9-HiBiT) cells", "conditions": "read-out: HiBiT-Degradation 293T.166 BRD9 2.0 hours (DC50), Table 2, 293T.166 cells, class symbols", "protocol": "Selected compounds were tested in a BRD9 degradation assay using the HiBit Method.\nDulbecco's modified Eagle medium (DMEM) without phenol red and fetal bovine serum (FBS) were purchased from Gibco (Grand Island, N.Y., USA). Nano-Glo® HiBiT Lytic Assay System was purchased from Promega (Madison, Wis., USA). 293T.166 (BRD9-HiBiT) cell line, endogenously expressing BRD9 with HiBiT fusion tag via CRISPR and ectopically expressing LgBiT tag, was purchased from Promega (Madison, Wis., USA). 293T.167 (BRD7-HiBiT) cell line, endogenously expressing BRD7 with HiBiT fusion tag via CRISPR and ectopically expressing LgBiT tag, was purchased from Promega (Madison, Wis., USA). 293T.92 (BRD4-HiBiT) cell line, endogenously expressing BRD4 with HiBiT fusion tag via CRISPR and ectopically expressing LgBiT tag, was generated in-house. Cell culture flasks and 384-well microplates were acquired from VWR (Radnor, Pa., USA).\nBRD9 degradation was determined based on quantification of luminescent signal using Nano-Glo® HiBiT Lytic Assay kit. Test compounds were added to the 384-well plate from a top concentration of 10 μM with 11 points, half log titration in duplicates. […] BRD7 and BRD4 degradation was similarly determined with 293T.167 cells and 293T.92 cells, respectively. […] Luminescence was acquired on EnVision™ Multilabel Reader (PerkinElmer, Santa Clara, Calif., USA).", "note": "The match of structure and compound is tentative.", "data": [{"smiles": "Cc1c(-c2ccc(C(=O)N3CCC(N4CCN(c5ccc(NC6CCC(=O)NC6=O)cc5F)CC4)C(F)(F)C3)c(OC(F)(F)F)c2)cn(C)c(=O)c1C", "note": "(single isomer, unassigned)", "values": [{"measurement": "DC50", "value": "< 100", "unit": "nM"}]}]}
